In article PMC10957901:
Results are given in words; binding and its absence hold for the method and conditions named. In cells and extracts the contact can be indirect. Some binding calls cover weakened binding; strength is not graded here. Tags and fused reporters may be left off the sequences shown. Each block holds one binder with its values, some of them ahead of it.

Legend:
[1] = molecular target: T1, Flag-VDR-LBD (C-terminal ligand-binding domain of VDR) (UniProt P11473); assay: co-IP; BV2 cells transfected with Flag-tagged VDR and Myc-tagged DUB3 constructs; lysates in IP buffer incubated with the indicated antibody and protein G-agarose beads at 4 °C overnight, three washes, western blotting
T1 sequence: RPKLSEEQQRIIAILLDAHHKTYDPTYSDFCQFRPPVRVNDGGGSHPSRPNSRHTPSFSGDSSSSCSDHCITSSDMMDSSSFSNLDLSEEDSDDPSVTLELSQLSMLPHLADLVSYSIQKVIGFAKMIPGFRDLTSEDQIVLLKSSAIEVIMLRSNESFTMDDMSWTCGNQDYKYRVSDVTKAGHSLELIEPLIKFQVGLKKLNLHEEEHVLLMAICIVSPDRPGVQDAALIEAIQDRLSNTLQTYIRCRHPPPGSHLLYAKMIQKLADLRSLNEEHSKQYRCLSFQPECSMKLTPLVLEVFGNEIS

[2] = molecular target: T2, Flag-VDR (vitamin D receptor, full length) (UniProt P11473); assay: as above
T2 sequence: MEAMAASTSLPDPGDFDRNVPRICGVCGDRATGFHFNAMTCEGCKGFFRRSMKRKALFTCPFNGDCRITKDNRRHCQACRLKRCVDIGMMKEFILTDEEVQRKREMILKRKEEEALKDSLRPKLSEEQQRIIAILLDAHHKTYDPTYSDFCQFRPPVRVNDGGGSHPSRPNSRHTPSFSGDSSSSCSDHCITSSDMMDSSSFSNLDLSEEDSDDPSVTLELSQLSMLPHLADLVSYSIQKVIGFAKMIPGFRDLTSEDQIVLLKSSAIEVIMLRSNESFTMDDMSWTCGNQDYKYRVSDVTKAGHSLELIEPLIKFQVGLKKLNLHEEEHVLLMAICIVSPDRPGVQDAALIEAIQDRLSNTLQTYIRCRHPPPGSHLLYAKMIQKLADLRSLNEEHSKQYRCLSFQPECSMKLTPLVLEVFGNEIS

binding [1]: binds | binding [2]: binds
B1: Myc-DUB3-N (N-terminal catalytic domain of DUB3) (domain or fragment, UniProt Q6R6M4 1-398)
chain: MEDDSLYLGGEWQFNHFSKLTSSRPDAAFAEIQRTSLPEKSPLSSEARVDLCDDLAPVARQLAPRKKLPLSSRRPAAVGAGLQNMGNTCYENASLQCLTYTPPLANYMLSREHSQTCQRPKCCMLCTMQAHITWALHSPGHVIQPSQALAAGFHRGKQEDAHEFLMFTVDAMKKACLPGHKQVDHHSKDTTLIHQIFGGCWRSQIKCLHCHGISDTFDPYLDIALDIQAAQSVKQALEQLVKPEELNGENAYHCGLCLQRAPASKTLTLHTSAKVLILVLKRFSDVTGNKLAKNVQYPECLDMQPYMSQQNTGPLVYVLYAVLVHAGWSCHDGHYFSYVKAQEGQWYKMDDAKVTACSITSVLSQQAYVLFYIQKSEWERHSESVSRGREPRALGAED

binding [1]: binds | binding [2]: binds
B2: Myc-DUB3 (deubiquitinase DUB3, full length) (enzyme, UniProt Q6R6M4 1-530)
chain: MEDDSLYLGGEWQFNHFSKLTSSRPDAAFAEIQRTSLPEKSPLSSEARVDLCDDLAPVARQLAPRKKLPLSSRRPAAVGAGLQNMGNTCYENASLQCLTYTPPLANYMLSREHSQTCQRPKCCMLCTMQAHITWALHSPGHVIQPSQALAAGFHRGKQEDAHEFLMFTVDAMKKACLPGHKQVDHHSKDTTLIHQIFGGCWRSQIKCLHCHGISDTFDPYLDIALDIQAAQSVKQALEQLVKPEELNGENAYHCGLCLQRAPASKTLTLHTSAKVLILVLKRFSDVTGNKLAKNVQYPECLDMQPYMSQQNTGPLVYVLYAVLVHAGWSCHDGHYFSYVKAQEGQWYKMDDAKVTACSITSVLSQQAYVLFYIQKSEWERHSESVSRGREPRALGAEDTDRRATQGELKRDHPCLQAPELDERLVERATQESTLDHWKFPQEQNKTKPEFNVRKVEGTLPPNVLVIHQSKYKCGMKNHHPEQQSSLLNLSSTTRTDQESVNTGTLASLQGRTRRSKGKNKHSKRALLVCQ
